Data published in publication doi:10.1101/2024.01.08.574713.
No constants are given. Whether binding was seen depends on the method and setting. Binding seen in cells or lysates may run through a third protein. Some entries that bind do so weakly or less than the wild type.

Protein sequences, listed by entry. Tags and fused reporters are not part of them.
UniProt Q61510: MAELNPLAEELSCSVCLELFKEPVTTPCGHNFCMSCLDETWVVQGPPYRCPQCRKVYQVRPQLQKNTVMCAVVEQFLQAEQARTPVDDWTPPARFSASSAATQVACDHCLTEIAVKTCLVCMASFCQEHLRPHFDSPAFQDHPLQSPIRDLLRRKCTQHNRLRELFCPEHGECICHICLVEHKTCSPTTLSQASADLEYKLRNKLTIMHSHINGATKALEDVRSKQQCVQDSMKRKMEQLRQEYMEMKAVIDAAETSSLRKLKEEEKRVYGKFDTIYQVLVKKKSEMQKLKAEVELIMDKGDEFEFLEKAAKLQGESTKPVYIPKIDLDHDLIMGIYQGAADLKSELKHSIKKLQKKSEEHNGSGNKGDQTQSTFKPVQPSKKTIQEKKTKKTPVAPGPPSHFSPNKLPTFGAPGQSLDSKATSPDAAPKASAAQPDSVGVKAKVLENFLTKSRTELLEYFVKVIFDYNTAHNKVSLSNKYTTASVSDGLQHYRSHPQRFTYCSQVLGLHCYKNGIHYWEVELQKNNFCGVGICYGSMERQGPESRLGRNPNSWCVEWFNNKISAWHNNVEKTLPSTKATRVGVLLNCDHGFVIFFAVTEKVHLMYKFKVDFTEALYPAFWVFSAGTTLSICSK

What was measured:
[1] = target: T1, RIG-I (mouse (endogenous in AML-12)) (UniProt Q6Q899); experiment: co-IP
T1 sequence: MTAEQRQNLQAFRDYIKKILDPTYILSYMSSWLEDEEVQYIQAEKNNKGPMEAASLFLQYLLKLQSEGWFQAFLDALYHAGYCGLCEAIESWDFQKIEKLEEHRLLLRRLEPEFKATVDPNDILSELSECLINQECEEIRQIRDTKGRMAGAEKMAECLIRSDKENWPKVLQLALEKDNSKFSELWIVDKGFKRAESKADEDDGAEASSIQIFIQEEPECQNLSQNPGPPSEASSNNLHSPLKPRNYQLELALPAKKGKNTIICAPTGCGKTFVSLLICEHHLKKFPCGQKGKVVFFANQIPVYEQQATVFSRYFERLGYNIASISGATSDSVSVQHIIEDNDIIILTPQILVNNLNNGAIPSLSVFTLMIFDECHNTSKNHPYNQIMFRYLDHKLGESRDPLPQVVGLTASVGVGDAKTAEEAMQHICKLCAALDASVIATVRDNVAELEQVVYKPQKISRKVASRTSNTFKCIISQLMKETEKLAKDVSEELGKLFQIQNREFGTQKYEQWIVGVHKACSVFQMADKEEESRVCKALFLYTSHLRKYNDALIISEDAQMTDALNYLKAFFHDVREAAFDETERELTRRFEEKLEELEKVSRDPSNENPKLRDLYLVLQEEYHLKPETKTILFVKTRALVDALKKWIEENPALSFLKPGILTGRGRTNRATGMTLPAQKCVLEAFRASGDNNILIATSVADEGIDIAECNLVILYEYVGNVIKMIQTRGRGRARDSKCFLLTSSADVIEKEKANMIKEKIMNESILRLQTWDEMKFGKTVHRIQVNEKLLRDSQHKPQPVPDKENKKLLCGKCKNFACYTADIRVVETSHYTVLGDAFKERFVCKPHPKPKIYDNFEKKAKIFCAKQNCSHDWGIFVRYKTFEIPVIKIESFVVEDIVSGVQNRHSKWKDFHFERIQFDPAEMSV

[2] = target: T2, PACT, the protein activator of PKR (mouse (endogenous in AML-12)) (UniProt Q9WTX2); experiment: proximity ligation
T2 sequence: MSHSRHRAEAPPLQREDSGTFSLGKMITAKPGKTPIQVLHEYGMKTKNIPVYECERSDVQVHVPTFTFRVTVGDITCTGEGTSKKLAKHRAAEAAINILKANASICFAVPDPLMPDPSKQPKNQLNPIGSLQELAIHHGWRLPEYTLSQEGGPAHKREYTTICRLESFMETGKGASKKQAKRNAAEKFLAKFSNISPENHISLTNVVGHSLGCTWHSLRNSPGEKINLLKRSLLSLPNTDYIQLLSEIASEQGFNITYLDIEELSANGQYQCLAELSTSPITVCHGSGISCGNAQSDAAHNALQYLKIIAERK

[3] = target: T2, PACT, the protein activator of PKR (mouse (endogenous in AML-12)); experiment: co-IP
[4] = target: T2, PACT, the protein activator of PKR (mouse (endogenous in AML-12)); experiment: co-IP; remark: listed apart in the source
[5] = target: T2, PACT, the protein activator of PKR (mouse (endogenous in AML-12)); experiment: proximity ligation; remark: listed apart in the source

Molecule	binding [1]	binding [2]	binding [3]	binding [4]	binding [5]
TRIM25 (from UniProt Q61510 1-634) (enzyme)	binds	–	–	–	–
RIG-I (protein, UniProt Q6Q899 1-926) MTAEQRQNLQAFRDYIKKILDPTYILSYMSSWLEDEEVQYIQAEKNNKGPMEAASLFLQYLLKLQSEGWFQAFLDALYHAGYCGLCEAIESWDFQKIEKLEEHRLLLRRLEPEFKATVDPNDILSELSECLINQECEEIRQIRDTKGRMAGAEKMAECLIRSDKENWPKVLQLALEKDNSKFSELWIVDKGFKRAESKADEDDGAEASSIQIFIQEEPECQNLSQNPGPPSEASSNNLHSPLKPRNYQLELALPAKKGKNTIICAPTGCGKTFVSLLICEHHLKKFPCGQKGKVVFFANQIPVYEQQATVFSRYFERLGYNIASISGATSDSVSVQHIIEDNDIIILTPQILVNNLNNGAIPSLSVFTLMIFDECHNTSKNHPYNQIMFRYLDHKLGESRDPLPQVVGLTASVGVGDAKTAEEAMQHICKLCAALDASVIATVRDNVAELEQVVYKPQKISRKVASRTSNTFKCIISQLMKETEKLAKDVSEELGKLFQIQNREFGTQKYEQWIVGVHKACSVFQMADKEEESRVCKALFLYTSHLRKYNDALIISEDAQMTDALNYLKAFFHDVREAAFDETERELTRRFEEKLEELEKVSRDPSNENPKLRDLYLVLQEEYHLKPETKTILFVKTRALVDALKKWIEENPALSFLKPGILTGRGRTNRATGMTLPAQKCVLEAFRASGDNNILIATSVADEGIDIAECNLVILYEYVGNVIKMIQTRGRGRARDSKCFLLTSSADVIEKEKANMIKEKIMNESILRLQTWDEMKFGKTVHRIQVNEKLLRDSQHKPQPVPDKENKKLLCGKCKNFACYTADIRVVETSHYTVLGDAFKERFVCKPHPKPKIYDNFEKKAKIFCAKQNCSHDWGIFVRYKTFEIPVIKIESFVVEDIVSGVQNRHSKWKDFHFERIQFDPAEMSV	–	no binding (condition: untreated cells)	binds weakly	binds	binds
